{"source": "PubChem BioAssay AID1508588 (Peter MacCallum Cancer Centre, 2020)", "purpose": "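Knock-downs boosting vemurafenib effects on melanoma cell growth or lactate release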 (primary screen)", "system": "human WM266.4 melanoma cells (BRAF V600 mutant)", "reagent": "siRNA pool against human genes, 40 nM", "timing": "96 h from transfection to read-out", "challenge": "vemurafenib 300 nM (about IC25), added 48 h after transfection, for 48 h; comparison arm got DMSO vehicle only", "measurement": "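Ratios to non-targeting siRNA for cell gain, counted as DAPI nuclei after minus before drug and averaged over two replicates, and for absorbance-read medium lactate per cell; both binned into fold-change classes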", "direction": "cell gain with vemurafenib: higher = more cell gain than with non-targeting siRNA; lactate per cell with vemurafenib: higher = more lactate made per cell", "call rule": "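Enhancement is called by pairing each knock-down's vehicle-arm and drug-arm fold-change classes for viability or glycolysis; which class combinations qualify is not given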", "meaning of the calls": "active = enhances vemurafenib effect; inactive = no enhancement seen", "note": "This is an unselected part of about 18,000 deposited reagents. Over the whole deposit, 790 (4.4%) are marked active. 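Calls rest on a combination of fold-change classes in drug and vehicle arms, not all shown here.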"}
{"Target gene": "USPL1 (ubiquitin specific peptidase like 1)", "cell gain with vemurafenib": 0.17, "lactate per cell with vemurafenib": 1.21, "Outcome": "inactive"}
{"Target gene": "CEP290 (centrosomal protein 290)", "cell gain with vemurafenib": 1.15, "lactate per cell with vemurafenib": 0.7, "Outcome": "inactive"}
{"Target gene": "GOT1 (glutamic-oxaloacetic transaminase 1)", "cell gain with vemurafenib": 0.71, "lactate per cell with vemurafenib": 0.72, "Outcome": "inactive"}
{"Target gene": "PRKCI (protein kinase C iota)", "cell gain with vemurafenib": 0.75, "lactate per cell with vemurafenib": 0.54, "Outcome": "inactive"}
{"Target gene": "LMOD3 (leiomodin 3)", "cell gain with vemurafenib": 0.88, "lactate per cell with vemurafenib": 1.4, "Outcome": "inactive"}
{"Target gene": "LRRC47 (leucine rich repeat containing 47)", "cell gain with vemurafenib": 0.57, "lactate per cell with vemurafenib": 0.34, "Outcome": "inactive"}
{"Target gene": "KRT20 (keratin 20)", "cell gain with vemurafenib": 0.3, "lactate per cell with vemurafenib": 1.66, "Outcome": "inactive"}
{"Target gene": "AGRN (agrin)", "cell gain with vemurafenib": 0.54, "lactate per cell with vemurafenib": 1.33, "Outcome": "inactive"}
{"Target gene": "CAMP (cathelicidin antimicrobial peptide)", "cell gain with vemurafenib": 0.3, "lactate per cell with vemurafenib": 1.08, "Outcome": "inactive"}
{"Target gene": "STEAP2 (STEAP2 metalloreductase)", "cell gain with vemurafenib": 0.64, "lactate per cell with vemurafenib": 0.33, "Outcome": "active"}
{"Target gene": "PLGLB1 (plasminogen like B1)", "cell gain with vemurafenib": 0.78, "lactate per cell with vemurafenib": 0.86, "Outcome": "inactive"}
{"Target gene": "MYT1L (myelin transcription factor 1 like)", "cell gain with vemurafenib": 0.54, "lactate per cell with vemurafenib": 1.67, "Outcome": "inactive"}
{"Target gene": "PDS5A (PDS5 cohesin associated factor A)", "cell gain with vemurafenib": 0.69, "lactate per cell with vemurafenib": 0.8, "Outcome": "inactive"}
{"Target gene": "IL12RB2 (interleukin 12 receptor subunit beta 2)", "cell gain with vemurafenib": 0.75, "lactate per cell with vemurafenib": 0.86, "Outcome": "inactive"}
{"Target gene": "PURA (purine rich element binding protein A)", "cell gain with vemurafenib": 0.93, "lactate per cell with vemurafenib": 0.88, "Outcome": "inactive"}
{"Target gene": "GPR15LG (G protein-coupled receptor 15 ligand)", "cell gain with vemurafenib": 0.36, "lactate per cell with vemurafenib": 1.38, "Outcome": "inactive"}
{"Target gene": "HECTD3 (HECT domain E3 ubiquitin protein ligase 3)", "cell gain with vemurafenib": 1.17, "lactate per cell with vemurafenib": 0.26, "Outcome": "inactive"}
{"Target gene": "TNFSF10 (TNF superfamily member 10)", "cell gain with vemurafenib": 0.83, "lactate per cell with vemurafenib": 0.82, "Outcome": "inactive"}
{"Target gene": "RHOC (ras homolog family member C)", "cell gain with vemurafenib": 0.36, "lactate per cell with vemurafenib": 1.75, "Outcome": "inactive"}
{"Target gene": "HERC3 (HECT and RLD domain containing E3 ubiquitin protein ligase 3)", "cell gain with vemurafenib": 0.47, "lactate per cell with vemurafenib": 1.05, "Outcome": "inactive"}
{"Target gene": "TBC1D26 (TBC1 domain family member 26)", "cell gain with vemurafenib": 0.47, "lactate per cell with vemurafenib": 1.36, "Outcome": "inactive"}
{"Target gene": "FASTKD5 (FASTK mitochondrial RNA regulator 5)", "cell gain with vemurafenib": 0.72, "lactate per cell with vemurafenib": 0.6, "Outcome": "inactive"}
{"Target gene": "RASSF7 (Ras association domain family member 7)", "cell gain with vemurafenib": 0.55, "lactate per cell with vemurafenib": 1.36, "Outcome": "inactive"}
{"Target gene": "APCS (amyloid P component, serum)", "cell gain with vemurafenib": 0.84, "lactate per cell with vemurafenib": 0.84, "Outcome": "inactive"}
{"Target gene": "PTH1R (parathyroid hormone 1 receptor)", "cell gain with vemurafenib": 0.29, "lactate per cell with vemurafenib": 0.73, "Outcome": "inactive"}
{"Target gene": "MTMR11 (myotubularin related protein 11)", "cell gain with vemurafenib": 0.33, "lactate per cell with vemurafenib": 0.68, "Outcome": "inactive"}

Reprinted from the listing, 2 entries:
{"Target gene": "CEP290 (centrosomal protein 290)", "cell gain with vemurafenib": 1.15, "lactate per cell with vemurafenib": 0.7, "Outcome": "inactive"}
{"Target gene": "GOT1 (glutamic-oxaloacetic transaminase 1)", "cell gain with vemurafenib": 0.71, "lactate per cell with vemurafenib": 0.72, "Outcome": "inactive"}

Continued:
{"Target gene": "OR7C1 (olfactory receptor family 7 subfamily C member 1)", "cell gain with vemurafenib": 1.01, "lactate per cell with vemurafenib": 0.66, "Outcome": "inactive"}
{"Target gene": "TRIM36 (tripartite motif containing 36)", "cell gain with vemurafenib": 0.79, "lactate per cell with vemurafenib": 0.92, "Outcome": "inactive"}
{"Target gene": "ENPP6 (ectonucleotide pyrophosphatase/phosphodiesterase 6)", "cell gain with vemurafenib": 0.11, "lactate per cell with vemurafenib": 0.61, "Outcome": "inactive"}
{"Target gene": "OVCH2 (ovochymase 2)", "cell gain with vemurafenib": 1.21, "lactate per cell with vemurafenib": 0.78, "Outcome": "inactive"}
{"Target gene": "HIVEP2 (HIVEP zinc finger 2)", "cell gain with vemurafenib": 1.28, "lactate per cell with vemurafenib": 0.42, "Outcome": "active"}
{"Target gene": "SHPRH (SNF2 histone linker PHD RING helicase)", "cell gain with vemurafenib": 0.7, "lactate per cell with vemurafenib": 1.17, "Outcome": "inactive"}
{"Target gene": "HTR1A (5-hydroxytryptamine receptor 1A)", "cell gain with vemurafenib": 0.39, "lactate per cell with vemurafenib": 1.22, "Outcome": "inactive"}
{"Target gene": "NT5C3A (5'-nucleotidase, cytosolic IIIA)", "cell gain with vemurafenib": 0.87, "lactate per cell with vemurafenib": 0.43, "Outcome": "inactive"}
{"Target gene": "DST (dystonin)", "cell gain with vemurafenib": 0.59, "lactate per cell with vemurafenib": 1.14, "Outcome": "inactive"}
{"Target gene": "IPO5 (importin 5)", "cell gain with vemurafenib": 0.81, "lactate per cell with vemurafenib": 1.04, "Outcome": "inactive"}
{"Target gene": "VN1R2 (vomeronasal 1 receptor 2)", "cell gain with vemurafenib": 1.08, "lactate per cell with vemurafenib": 0.63, "Outcome": "inactive"}
{"Target gene": "CCDC198 (coiled-coil domain containing 198)", "cell gain with vemurafenib": -0.11, "lactate per cell with vemurafenib": 0.88, "Outcome": "inactive"}
{"Target gene": "HCFC1 (host cell factor C1)", "cell gain with vemurafenib": 0.47, "lactate per cell with vemurafenib": 1.61, "Outcome": "inactive"}
{"Target gene": "LRRC14B (leucine rich repeat containing 14B)", "cell gain with vemurafenib": 0.81, "lactate per cell with vemurafenib": 1.56, "Outcome": "inactive"}
